# Laboratory results published in PubChem BioAssay AID720504 (National Center for Advancing Translational Sciences (NCATS), 2013).
# Amino acid sequences for entries named in this document (tags omitted).
# UniProt P53350, whole entry, looked up: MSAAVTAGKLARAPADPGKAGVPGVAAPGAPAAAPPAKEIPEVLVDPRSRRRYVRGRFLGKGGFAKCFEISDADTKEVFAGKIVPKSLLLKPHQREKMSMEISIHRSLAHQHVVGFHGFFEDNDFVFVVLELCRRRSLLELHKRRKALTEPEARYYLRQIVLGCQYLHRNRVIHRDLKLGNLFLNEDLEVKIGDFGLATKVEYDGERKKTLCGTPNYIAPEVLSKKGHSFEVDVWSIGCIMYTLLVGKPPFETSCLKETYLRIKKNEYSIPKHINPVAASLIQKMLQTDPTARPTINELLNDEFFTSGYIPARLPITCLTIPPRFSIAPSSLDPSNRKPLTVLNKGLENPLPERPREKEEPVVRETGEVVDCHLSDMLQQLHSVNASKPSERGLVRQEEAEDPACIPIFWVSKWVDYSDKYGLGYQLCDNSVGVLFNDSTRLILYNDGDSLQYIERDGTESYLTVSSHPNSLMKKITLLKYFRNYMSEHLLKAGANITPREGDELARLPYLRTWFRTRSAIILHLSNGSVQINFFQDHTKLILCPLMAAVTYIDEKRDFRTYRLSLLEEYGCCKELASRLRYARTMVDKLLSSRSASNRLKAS
# Where “and” joins values, the source holds several entries; their conditions need not be identical. Identical values can stand only once. Hit rate of the full screen: of about 360,000 compounds, about 10,000 (2.8%) were called active. This list was built around the results that the source calls inconclusive (neither active nor inactive); the mix of calls is not that of the screen. Calls follow the shape of the dose curve; as a rule, active = well fitted inhibition curve with a large enough effect; inconclusive = small, poorly fitted or top-dose-only effect; inactive = flat fitted curve, though single readings scatter. A potency beside an inconclusive call is a rough fit, not a confirmed value.
# Biological target: Serine/threonine-protein kinase PLK1 (Homo sapiens) (UniProt P53350)
# Assay: qHTS for Inhibitors of PLK1-PDB (polo-like kinase 1 - polo-box domain): Primary Screen; also: nearly all actives have a fitted effect of over 65% in size; as to max response, negative = inhibition: series mostly up to about 57 µM
# Conditions: Plk1 PBD binding of FITC phosphopeptide, fluorescence polarization
# % is scaled to controls: 0 for no effect and ±100 for the full control effect; potency is read from the fitted curve at half-maximal effect.
Compound,Potency,"max response, negative = inhibition"
O=[N+]([O-])c1cccc(C(=S)N2CCN(c3ccc(F)cc3)CC2)c1,"inconclusive: 37.7 µM [inhibitor, partial curve, poor fit]",
O=C(NNC1=NS(=O)(=O)c2ccccc21)c1ccccc1,"inconclusive: 23.8 µM [inhibitor, single point]",
COc1c(N2CCN[C@H](C)C2)c(F)cc2c(=O)c(C(=O)O)cn(C3CC3)c12,"inconclusive: 29.9 µM [inhibitor, partial curve]",
C=CC1=C(C(=O)O)N2C(=O)[C@@H](NC(=O)/C(=N\OCC(=O)O)c3csc(N)n3)[C@H]2SC1,"inconclusive: 26.7 µM [inhibitor, single point]",
COC(=O)c1ccc2nc(-c3ccc(C)cc3)c(Cc3cccc(Cl)c3)n2c1,,inactive: 3.13%
CCc1cc(SC#N)ccc1N,"inconclusive: 21.2 µM [inhibitor, partial curve]",
CC1(C)C(c2cccs2)=[N+]([O-])C2(CCCCC/C2=N\O)N1O (configuration not stated),,inactive: -7.33%
O=C(NCc1ccco1)c1ccccc1Br,active: 26.7 µM,
Cc1oc(-c2ccccc2Cl)nc1CS(=O)CC(=O)NC1CC1 (configuration not stated),,inactive: -0.128%
CCOC(=O)/C(C#N)=C\c1cc(OC)c(OC)cc1[N+](=O)[O-],active: 7.52 µM,
O=C(O)c1ccc(NC(=O)c2cn(-c3ccccc3)nc2-c2ccc(Br)cc2)cc1,"inconclusive: 29.9 µM [inhibitor, single point]",
CCOC(=O)c1c(NC(=O)C(=O)N/N=C/c2ccc(OCC)cc2)sc2c1CCCCC2,,inactive: -5.06%
O=[N+]([O-])c1cc([N+](=O)[O-])c2cccnc2c1Oc1ccccc1O,active: 3.36 µM,
C=CCn1c2ccccc2c2nnc(SCc3[nH]c(=O)[nH]c3C(=O)CCCCC(=O)OCC)nc21,"inconclusive: 18.9 µM [inhibitor, partial curve]",
CC(C)c1ccc(/C=N/NC(=O)c2nnn(-c3nonc3N)c2CN(C)C2CCCCC2)cc1,"inconclusive: 3.77 µM [inhibitor, full curve]",
CCCCCCc1nc(C(N)=O)c2[nH]c(=O)n(-c3ccccc3F)c2n1,,inactive: -22.2%
CCc1ccc(-c2nc(CS(=O)CC(=O)NCc3ccccc3)c(C)o2)cc1 (configuration not stated),"inconclusive: 33.6 µM [inhibitor, partial curve]",
O=C(Nc1ccncc1)c1cc(S(=O)(=O)N2CCCC2)ccc1Cl,,inactive: -16.1%
O=C(CSc1nn(-c2ccc(Cl)cc2)c(=S)s1)N1CCN(C(=O)c2ccco2)CC1,,inactive: -14.6%
CCNC(=O)NC(=O)COC(=O)c1ccccc1SCC(=O)NC(=O)NCC,active: 2.67 µM,
C=CCNC(=S)Nc1ccc(Cl)cc1,active: 13.4 µM,
Cc1cccc(NC(=S)NNC(=S)NC2CCCCC2)c1C,"inconclusive: 16.8 µM [inhibitor, partial curve]",
c1ccc2c(c1)NCCS2,"inconclusive: 21.2 µM [inhibitor, single point]",
C=C(C)CNC(=S)Nc1ccc(S(=O)(=O)Nc2cnc3ccccc3n2)cc1,"inconclusive: 26.7 µM [inhibitor, partial curve]",

Compound,Potency,"max response, negative = inhibition"
CCOC(=O)C1CCCN(c2cc(=O)n(Cc3ccc(F)cc3)c(=O)[nH]2)C1 (configuration not stated),,inconclusive: -31.7% [inhibitor]
CCN(CC)C(=O)c1sc(NC(=O)c2cc(-c3ccc(C)s3)nc3ccccc23)c(C(=O)OC)c1C,active: 15 µM,
CCN(CC)c1ccc2cc(-c3nc4ccccc4[nH]3)c(=O)oc2c1,active: 26.7 µM,
COc1ccc(NC(=O)CSc2nc3[nH]ncc3c(=O)n2-c2ccccc2C)cc1OC,,inactive: 6.28%
Fc1ccc(-c2cc(C(F)(F)F)nc(N3CCCCC3)n2)cc1,,inactive: -1.77%
O=C(COC(=O)c1cnc(Cl)c(Cl)c1)NCc1cccs1,"inconclusive: 37.7 µM [inhibitor, single point]",
CCn1c(SCC(=O)Nc2oc(-c3ccccc3)c(-c3ccccc3)c2C#N)nnc1-c1ccncc1,"inconclusive: 67 µM [inhibitor, partial curve] and inconclusive: 21.2 µM [inhibitor, full curve]",
CCOC(=O)c1c(O)c(O)c(C(=O)OCC)n1-c1ccccc1,,inactive: -28.1%
COc1ccccc1-c1nc(C#N)c(N2CCN(C(=O)c3ccco3)CC2)o1,,inactive: 1.69%
CCc1ccccc1N(CC(=O)O)S(C)(=O)=O,,inconclusive: -31.2% [inhibitor]
Cc1ccc(N2C(=O)[C@@H]3[C@H](C2=O)[C@H]2C=CC=NN2[C@@H]3C(=O)Nc2ccc(Cl)cc2)cc1,"inconclusive: 29.9 µM [inhibitor, partial curve]",
NC(=O)C1CCN(CC(=O)Nc2ccc3c(c2)OCO3)CC1,,inactive: 1.82%
Nc1ncc(S(=O)(=O)c2ccc([N+](=O)[O-])cc2)s1,"inconclusive: 26.7 µM [inhibitor, partial curve]",
CC(Oc1cccc(F)c1)C(=O)Nc1ccc(N2CCOCC2)cc1 (configuration not stated),,inactive: -5.8%
O=C(CCc1nnc2n(Cc3ccccc3)c(=O)c3ccccc3n12)NCCN1CCOCC1,"inconclusive: 42.3 µM [inhibitor, partial curve, poor fit]",
COc1cc(NC(=O)c2cc(Br)cc(C)c2OC)ccc1NC(=O)C(C)C,,inactive: -5.06%
COc1cc(CN2CCN(C(O)(c3ccccc3)c3ccccc3)CC2)cc(OC)c1OC,,inactive: -5.58%
CNC(=S)SCCOc1ccccc1C,"inconclusive: 29.9 µM [inhibitor, partial curve]",
Cc1ccc(C(C)C)c(OCc2ccc(C(=O)N/N=C/c3ccc(C(=O)O)cc3)cc2)c1,active: 23.8 µM,
C=CCn1c(=S)[nH]c2scc(-c3ccc(C)o3)c2c1=O,"inconclusive: 26.7 µM [inhibitor, partial curve]",
CCc1ccc(NC(=O)Cn2ncc3c4ccccc4n(C)c3c2=O)cc1,active: 23.8 µM,
O=[N+]([O-])c1cccc(NNS(=O)(=O)c2ccccc2F)c1,active: 21.2 µM,
S=c1[nH]c2cc(-c3ccccc3)ccc2o1,"inconclusive: 3.36 µM [inhibitor, full curve]",
CN1CCN(C(=O)c2cc3c(c(-c4cccc(Br)c4)n2)[C@H](CCO)N(S(=O)C(C)(C)C)C3)CC1 (some centres not stated),,inactive: -5.5%

Compound,Potency,"max response, negative = inhibition"
CC(Cc1nnc(N)s1)c1ccccc1 (configuration not stated),"inconclusive: 23.8 µM [inhibitor, partial curve]",
CSC1=NCCN1C(=O)c1ccc(S(=O)(=O)N2CCOCC2)cc1,"inconclusive: 29.9 µM [inhibitor, single point]",
O=C(Cc1ccccc1)Nc1ccc(CN2CCOCC2)cc1,,inactive: -5.62%
COCCCN=C1NN=C(c2cc(C)n(-c3ccccc3F)c2C)CS1,"inconclusive: 42.3 µM [inhibitor, partial curve]",
COc1cc(Cl)ccc1OC1(C)CCN(Cc2ccc(SC)cc2)C1 (configuration not stated),,inactive: -7.85%
NC(=O)CC(NC(=O)c1ccc(Br)cc1)c1ccc(NC2CCCCCCC2)c([N+](=O)[O-])c1 (configuration not stated),"inconclusive: 37.7 µM [inhibitor, single point]",
O=[N+]([O-])c1cncc([N+](=O)[O-])c1Nc1cccc(O)c1,"inconclusive: 23.8 µM [inhibitor, single point]",
O=C1C(Nc2ccccc2)=C(N2CCCCC2)C(=O)c2ccccc21,"inconclusive: 26.7 µM [inhibitor, partial curve]",
CC(=O)n1nc(-c2ccccc2)nc1NCc1ccc(F)cc1,,inactive: -5.14%
CCOc1ccc(Nc2ccc(N)c(S(=O)(=O)O)c2)cc1,"inconclusive: 23.8 µM [inhibitor, single point]",
CCCc1cc(=O)[nH]c(SCC(=O)Nc2ccc([N+](=O)[O-])cc2C#N)n1,,inconclusive: -15.9% [inhibitor]
C[C@@H](NC(=O)[C@@H]1CCCN1C(=O)[C@@H]1CCCN1C(=O)c1cccs1)c1ccccc1,,inactive: -8.34%
Cc1[nH][nH]c(=O)c1[C@@H](c1ccccc1[N+](=O)[O-])C(C#N)C#N,active: 23.8 µM,
Cc1nc2cc(NS(=O)(=O)c3c(C)c(C)cc(C)c3C)ccc2s1,,inactive: -11%
O=C(O)c1ccccc1/C=N/NC(=O)c1cc(-c2ccco2)nc2ccccc12,"inconclusive: 23.8 µM [inhibitor, partial curve]",
COC(=O)C1=C(N)Oc2c(oc(CO)cc2=O)C1c1c(F)cccc1Cl (configuration not stated),"inconclusive: 37.7 µM [inhibitor, partial curve]",
COc1cccc(CC2(CO)CCCN(Cc3ccc(CO)o3)C2)c1 (configuration not stated),,inactive: -7.27%
CC1CN(C(=O)Nc2cccc(C(F)(F)F)c2)CC(C)O1 (configuration not stated),,inactive: -12.1%
O=C(O)c1ccc(N=c2oc3cc(O)ccc3cc2C(=O)NCc2ccccc2)cc1,"inconclusive: 29.9 µM [inhibitor, partial curve]",
COc1ccc(OCc2n[nH]c(=S)n2N)cc1,active: 3.77 µM,
CCC(C)NC(=O)c1ccc2c(c1)S(=O)(=O)c1ccccc1C2=O (configuration not stated),,inactive: 1.2%
Cc1ccc(OCC(=O)N/N=C/C=C/c2ccco2)cc1,"inconclusive: 29.9 µM [inhibitor, partial curve]",
CCOC(=O)N1CCC(N2CCN(Cc3ccc(C)o3)C(CCO)C2)CC1 (configuration not stated),active: 15 µM,
COC(=O)c1ccc(Cn2cc(/C=C\[N+](=O)[O-])c3ccccc32)o1,"inconclusive: 16.8 µM [inhibitor, partial curve]",
